This is one part of the list.
compound: COc1cc(Nc2ncc3c(n2)-c2ccc(Cl)cc2C(c2c(F)cccc2OC)=NC3)ccc1C(=O)O [alisertib]; test: log2 fold change, soluble protein after heating vs DMSO (PISA); higher = thermal stabilisation; K562 lysate, 10 uM; active = over 0.2 and 3.5 SD of the protein, either way, in both replicates (recomputed)
Method in brief: (§1)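 Following dounce homogenisation of K562 pellets in PBS pH 7.4 with 1 mM MgCl2, crude extract at 1 mg/mL protein was incubated for 30 min with 10 μM compound. Aliquots were then heated for 3 min over 48°C-58°C and pooled, NP-40 was added to 0.5% at 4°C, and soluble protein was recovered as the supernatant at 21,000xg for 90 min. Channel-sum-equalised TMTpro 16plex LC-MS/MS quantified this protein. Each value, from duplicates, is a log-two fold change in thermal stability relative to solvent controls.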

By UniProt entry, the sequences of proteins in these tests, tags left out. Where a name states a change or a piece, a line headed by the entry shows the natural chain unless it says otherwise.
UniProt Q5QJE6: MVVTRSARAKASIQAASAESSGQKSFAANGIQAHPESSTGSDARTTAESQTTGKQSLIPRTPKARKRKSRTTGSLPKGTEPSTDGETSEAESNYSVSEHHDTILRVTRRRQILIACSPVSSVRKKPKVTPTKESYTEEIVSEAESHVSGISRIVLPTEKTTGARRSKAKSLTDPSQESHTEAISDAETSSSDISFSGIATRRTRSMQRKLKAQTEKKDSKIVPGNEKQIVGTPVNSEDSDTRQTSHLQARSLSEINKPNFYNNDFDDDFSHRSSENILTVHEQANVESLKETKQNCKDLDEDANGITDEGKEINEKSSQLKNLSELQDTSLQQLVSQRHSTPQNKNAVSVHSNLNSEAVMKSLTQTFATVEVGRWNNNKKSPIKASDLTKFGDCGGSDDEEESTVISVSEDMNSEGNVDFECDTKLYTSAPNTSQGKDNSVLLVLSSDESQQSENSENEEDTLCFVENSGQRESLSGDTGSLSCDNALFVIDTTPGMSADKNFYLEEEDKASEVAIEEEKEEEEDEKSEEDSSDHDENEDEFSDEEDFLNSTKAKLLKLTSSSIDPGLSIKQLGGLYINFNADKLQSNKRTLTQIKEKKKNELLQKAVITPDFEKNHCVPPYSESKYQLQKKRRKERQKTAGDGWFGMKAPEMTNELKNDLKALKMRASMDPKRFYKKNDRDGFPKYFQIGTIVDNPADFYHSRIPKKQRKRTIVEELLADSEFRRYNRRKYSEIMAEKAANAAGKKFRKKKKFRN
UniProt Q6UX07: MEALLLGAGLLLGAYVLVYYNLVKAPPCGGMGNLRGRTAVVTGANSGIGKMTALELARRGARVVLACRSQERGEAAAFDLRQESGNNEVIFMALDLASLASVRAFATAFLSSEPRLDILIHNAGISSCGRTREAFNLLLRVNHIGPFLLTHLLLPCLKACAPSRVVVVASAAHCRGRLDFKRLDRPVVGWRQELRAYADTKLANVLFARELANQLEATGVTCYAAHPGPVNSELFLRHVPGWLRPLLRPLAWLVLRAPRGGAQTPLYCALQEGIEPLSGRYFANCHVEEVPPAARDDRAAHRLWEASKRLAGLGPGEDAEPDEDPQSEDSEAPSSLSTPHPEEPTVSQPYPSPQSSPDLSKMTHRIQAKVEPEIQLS
UniProt Q9BY27: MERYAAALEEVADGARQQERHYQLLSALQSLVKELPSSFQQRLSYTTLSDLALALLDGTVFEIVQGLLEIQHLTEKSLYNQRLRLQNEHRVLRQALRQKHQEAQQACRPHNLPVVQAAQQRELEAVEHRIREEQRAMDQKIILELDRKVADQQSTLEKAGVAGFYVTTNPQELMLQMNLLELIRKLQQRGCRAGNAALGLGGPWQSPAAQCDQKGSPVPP
UniProt P25686: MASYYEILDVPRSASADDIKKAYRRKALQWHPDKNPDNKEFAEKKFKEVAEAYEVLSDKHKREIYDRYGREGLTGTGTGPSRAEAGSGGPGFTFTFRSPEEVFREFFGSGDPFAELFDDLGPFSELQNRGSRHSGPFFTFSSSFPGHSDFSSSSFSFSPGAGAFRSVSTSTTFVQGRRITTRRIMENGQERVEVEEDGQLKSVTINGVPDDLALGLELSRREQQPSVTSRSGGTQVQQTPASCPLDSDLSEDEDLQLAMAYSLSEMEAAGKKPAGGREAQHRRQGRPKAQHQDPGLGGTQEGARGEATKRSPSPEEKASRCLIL
UniProt P49184: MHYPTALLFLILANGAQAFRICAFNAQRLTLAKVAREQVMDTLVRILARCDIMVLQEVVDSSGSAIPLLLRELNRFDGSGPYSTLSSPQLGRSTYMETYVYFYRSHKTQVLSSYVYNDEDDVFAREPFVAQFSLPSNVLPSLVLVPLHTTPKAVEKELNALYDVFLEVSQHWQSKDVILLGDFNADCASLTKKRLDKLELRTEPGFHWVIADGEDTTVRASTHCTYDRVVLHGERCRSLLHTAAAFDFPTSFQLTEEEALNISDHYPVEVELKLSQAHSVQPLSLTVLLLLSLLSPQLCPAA
UniProt Q9UBS3: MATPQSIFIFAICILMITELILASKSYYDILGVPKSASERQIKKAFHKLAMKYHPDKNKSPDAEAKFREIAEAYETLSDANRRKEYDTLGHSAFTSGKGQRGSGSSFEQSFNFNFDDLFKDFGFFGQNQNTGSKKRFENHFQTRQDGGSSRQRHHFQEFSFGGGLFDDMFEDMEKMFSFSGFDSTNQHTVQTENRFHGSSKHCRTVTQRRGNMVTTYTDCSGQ
UniProt Q9H147: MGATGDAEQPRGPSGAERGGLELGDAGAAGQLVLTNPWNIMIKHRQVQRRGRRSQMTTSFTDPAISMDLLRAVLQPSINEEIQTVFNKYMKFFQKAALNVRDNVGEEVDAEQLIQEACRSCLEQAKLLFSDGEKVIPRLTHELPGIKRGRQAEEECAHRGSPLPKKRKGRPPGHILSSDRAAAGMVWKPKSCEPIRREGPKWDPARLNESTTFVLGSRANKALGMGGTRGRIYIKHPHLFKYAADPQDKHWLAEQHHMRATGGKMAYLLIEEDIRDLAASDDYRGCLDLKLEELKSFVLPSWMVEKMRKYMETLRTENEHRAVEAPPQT
UniProt Q9H6R0: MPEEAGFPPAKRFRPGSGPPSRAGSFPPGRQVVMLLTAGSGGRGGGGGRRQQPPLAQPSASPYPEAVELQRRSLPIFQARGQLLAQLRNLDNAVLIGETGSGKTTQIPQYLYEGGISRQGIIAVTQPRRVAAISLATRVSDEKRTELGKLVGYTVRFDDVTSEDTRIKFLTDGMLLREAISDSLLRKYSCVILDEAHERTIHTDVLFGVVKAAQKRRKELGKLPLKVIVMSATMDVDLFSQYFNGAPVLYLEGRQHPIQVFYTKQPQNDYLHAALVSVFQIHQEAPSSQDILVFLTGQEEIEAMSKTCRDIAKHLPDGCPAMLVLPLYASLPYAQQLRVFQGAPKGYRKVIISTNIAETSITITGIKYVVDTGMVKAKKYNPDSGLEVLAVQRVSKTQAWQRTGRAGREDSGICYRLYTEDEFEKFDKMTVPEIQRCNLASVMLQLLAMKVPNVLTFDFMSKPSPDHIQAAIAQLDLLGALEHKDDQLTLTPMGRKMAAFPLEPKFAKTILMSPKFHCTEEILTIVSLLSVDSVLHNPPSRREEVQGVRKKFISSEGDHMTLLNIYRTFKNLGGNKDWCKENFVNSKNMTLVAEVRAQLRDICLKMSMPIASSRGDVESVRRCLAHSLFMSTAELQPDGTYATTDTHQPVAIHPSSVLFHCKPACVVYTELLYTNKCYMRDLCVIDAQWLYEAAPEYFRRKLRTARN
UniProt Q9Y3R5: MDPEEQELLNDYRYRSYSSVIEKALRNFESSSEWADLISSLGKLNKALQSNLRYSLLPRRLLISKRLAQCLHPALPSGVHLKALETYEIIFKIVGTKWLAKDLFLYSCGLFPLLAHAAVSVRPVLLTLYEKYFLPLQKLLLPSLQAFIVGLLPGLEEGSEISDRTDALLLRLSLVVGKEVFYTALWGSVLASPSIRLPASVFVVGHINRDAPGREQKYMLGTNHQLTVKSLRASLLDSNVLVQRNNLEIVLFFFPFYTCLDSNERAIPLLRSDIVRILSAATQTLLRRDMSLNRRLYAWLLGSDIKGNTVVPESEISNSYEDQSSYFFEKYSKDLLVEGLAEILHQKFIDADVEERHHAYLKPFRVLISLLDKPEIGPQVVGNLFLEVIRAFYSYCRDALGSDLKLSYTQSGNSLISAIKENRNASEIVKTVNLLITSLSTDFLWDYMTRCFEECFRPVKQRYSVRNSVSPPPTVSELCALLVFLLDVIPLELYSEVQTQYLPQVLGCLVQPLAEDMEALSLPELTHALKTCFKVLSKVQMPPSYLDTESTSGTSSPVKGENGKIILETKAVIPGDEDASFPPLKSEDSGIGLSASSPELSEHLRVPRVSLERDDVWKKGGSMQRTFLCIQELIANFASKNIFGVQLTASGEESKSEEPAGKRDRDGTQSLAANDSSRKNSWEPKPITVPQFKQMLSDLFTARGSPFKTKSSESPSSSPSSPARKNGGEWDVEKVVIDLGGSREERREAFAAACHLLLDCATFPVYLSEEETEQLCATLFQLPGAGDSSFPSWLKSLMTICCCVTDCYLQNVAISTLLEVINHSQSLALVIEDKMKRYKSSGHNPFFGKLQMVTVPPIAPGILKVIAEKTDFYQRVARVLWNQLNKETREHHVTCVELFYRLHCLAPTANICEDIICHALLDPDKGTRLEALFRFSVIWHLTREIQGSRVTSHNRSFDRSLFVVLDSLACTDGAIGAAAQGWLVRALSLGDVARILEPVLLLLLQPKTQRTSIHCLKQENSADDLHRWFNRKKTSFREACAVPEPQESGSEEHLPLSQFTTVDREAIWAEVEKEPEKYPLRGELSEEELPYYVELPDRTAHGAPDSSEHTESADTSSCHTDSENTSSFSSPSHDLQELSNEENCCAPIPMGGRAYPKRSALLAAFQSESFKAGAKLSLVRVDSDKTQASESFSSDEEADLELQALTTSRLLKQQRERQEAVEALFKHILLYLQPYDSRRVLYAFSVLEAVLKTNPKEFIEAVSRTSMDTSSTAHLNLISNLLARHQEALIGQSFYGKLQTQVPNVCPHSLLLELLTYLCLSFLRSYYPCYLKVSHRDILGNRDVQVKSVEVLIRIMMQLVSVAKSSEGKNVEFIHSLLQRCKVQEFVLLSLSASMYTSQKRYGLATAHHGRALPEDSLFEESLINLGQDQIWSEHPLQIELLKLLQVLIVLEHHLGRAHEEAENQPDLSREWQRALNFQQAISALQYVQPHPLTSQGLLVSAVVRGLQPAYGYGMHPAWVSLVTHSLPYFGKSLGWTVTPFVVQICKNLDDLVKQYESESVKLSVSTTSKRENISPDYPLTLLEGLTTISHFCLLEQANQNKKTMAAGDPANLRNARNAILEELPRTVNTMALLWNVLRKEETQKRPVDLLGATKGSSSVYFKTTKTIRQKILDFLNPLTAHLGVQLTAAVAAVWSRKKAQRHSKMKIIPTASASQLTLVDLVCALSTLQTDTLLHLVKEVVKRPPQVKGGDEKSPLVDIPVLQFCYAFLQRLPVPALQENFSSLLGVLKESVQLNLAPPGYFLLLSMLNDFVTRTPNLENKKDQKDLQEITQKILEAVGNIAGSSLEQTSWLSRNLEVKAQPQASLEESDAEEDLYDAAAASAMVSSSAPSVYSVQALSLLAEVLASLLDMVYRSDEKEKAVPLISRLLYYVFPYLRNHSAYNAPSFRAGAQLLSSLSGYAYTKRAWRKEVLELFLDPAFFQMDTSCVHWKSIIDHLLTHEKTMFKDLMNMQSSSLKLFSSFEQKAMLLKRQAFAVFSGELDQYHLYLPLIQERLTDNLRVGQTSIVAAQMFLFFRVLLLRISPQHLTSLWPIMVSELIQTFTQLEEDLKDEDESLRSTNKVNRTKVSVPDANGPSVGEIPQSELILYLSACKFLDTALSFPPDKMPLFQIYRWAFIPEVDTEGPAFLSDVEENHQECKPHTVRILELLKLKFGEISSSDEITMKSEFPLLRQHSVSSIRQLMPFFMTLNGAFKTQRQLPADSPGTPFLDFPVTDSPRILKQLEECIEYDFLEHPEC

log2 fold change, inactive:
DOCK11, A0A0J9YW64 0.078
DNPEP (UniProt B9ZVU2) -0.009
DNTTIP2 (UniProt Q5QJE6) -0.19
DHPS (UniProt M0R1T2) 0.047
DHRS13 (UniProt Q6UX07) -0.211
DGCR6L (UniProt Q9BY27) -0.087
DNMT3B (UniProt Q9UBC3) -0.28
DOP1A (UniProt Q5JWR5) -0.023
DNAJC19, A0A2R8Y839 0.038
DMBT1 isoform 6 (UniProt Q9UGM3) -0.17
DNPEP (UniProt C9JBE1) 0.059
DNAJB2 (UniProt P25686) 0.113
DNASE1L1 (UniProt P49184) 0.171
DNMT1 (UniProt P26358) -0.112

compound: COc1cc2nc(-c3cc(F)ccc3O)nc(N[C@@H]3CNC[C@H]3C(C)(C)O)c2cc1OC; test: as above
Method in brief: as §1

log2 fold change, inactive:
DNHD1 (UniProt Q96M86) 0.036
DMTN isoform 2 (UniProt Q08495) 0.157
DNPEP (UniProt B9ZVU2) -0.021
DNTTIP2 (UniProt Q5QJE6) 0.115
DOCK5 (UniProt Q9H7D0) 0.11
DHRS13 (UniProt Q6UX07) -0.138
DNAJB9 (UniProt Q9UBS3) 0.03
DNMT3A (UniProt Q9Y6K1) 0.416
DNTTIP1 (UniProt Q9H147) 0.08
DNPEP (UniProt C9JBE1) 0.062
DNASE1L1 (UniProt P49184) -0.072
DHX33 (UniProt Q9H6R0) -0.019
DOP1B (UniProt Q9Y3R5) -0.054

compound: COc1cc2ncnc(Nc3ccc(F)c(Cl)c3)c2cc1OCCCN1CCOCC1 [gefitinib]; test: as above
Method in brief: as §1

log2 fold change, inactive:
DOCK11, A0A0J9YW64 0.079
DNPEP (UniProt B9ZVU2) -0.052
DNTTIP2 (UniProt Q5QJE6) 0.187
DHPS (UniProt M0R1T2) 0.175
DHRS13 (UniProt Q6UX07) 0.036
DGCR6L (UniProt Q9BY27) 0.171
DNMT3B (UniProt Q9UBC3) 0.061
DOP1A (UniProt Q5JWR5) 0.036
DNAJC19, A0A2R8Y839 0.032
DMBT1 isoform 6 (UniProt Q9UGM3) 0.023
DNPEP (UniProt C9JBE1) 0.383
DNAJB2 (UniProt P25686) -0.263
DNASE1L1 (UniProt P49184) 0.037
DNMT1 (UniProt P26358) 0.117

— the supplement of paper PMC10849652
